Experimental findings from article PMC6428352 are described below.

The target in experiment [1] is CENP-F 2819-3114 fragment, two-hybrid bait (pEG202) (human). In words: two-hybrid; LexA operator-driven; bait pEG202-CENP-F 2819-3114, prey pJG4-5 with full length RB, RB 301-918 or Miro1, strain EGY48; growth on leucine dropout medium.
Experiment [2] has as its target CENP-F 2977-3020 T2997A, two-hybrid bait (human). The experiment in a line: two-hybrid; LexA operator-driven; bait pEG202-CENP-F 2977-3020 (wild type or alanine mutants), prey pJG4-5-Miro1 1-594, strain EGY48; X-gal overlay on Gal/SD-His-Ura-Trp and growth on Gal/SD-Leu, 48 h at 30°C.
The target of experiment [3] is CENP-F 2977-3020 F2989A, two-hybrid bait (human). The description is as above.
Experiment [4] deals with CENP-F 2977-3020 G2988A, two-hybrid bait (human). Described as above.

No constants are given. Whether binding was seen depends on the method and setting. For part of these data: Binding calls can cover weak binding; strength is not graded here.

B1: retinoblastoma (RB) protein, full length, two-hybrid prey (pJG4-5) (protein, UniProt P06400 1-928)
chain: MPPKTPRKTAATAAAAAAEPPAPPPPPPPEEDPEQDSGPEDLPLVRLEFEETEEPDFTALCQKLKIPDHVRERAWLTWEKVSSVDGVLGGYIQKKKELWGICIFIAAVDLDEMSFTFTELQKNIEISVHKFFNLLKEIDTSTKVDNAMSRLLKKYDVLFALFSKLERTCELIYLTQPSSSISTEINSALVLKVSWITFLLAKGEVLQMEDDLVISFQLMLCVLDYFIKLSPPMLLKEPYKTAVIPINGSPRTPRRGQNRSARIAKQLENDTRIIEVLCKEHECNIDEVKNVYFKNFIPFMNSLGLVTSNGLPEVENLSKRYEEIYLKNKDLDARLFLDHDKTLQTDSIDSFETQRTPRKSNLDEEVNVIPPHTPVRTVMNTIQQLMMILNSASDQPSENLISYFNNCTVNPKESILKRVKDIGYIFKEKFAKAVGQGCVEIGSQRYKLGVRLYYRVMESMLKSEEERLSIQNFSKLLNDNIFHMSLLACALEVVMATYSRSTSQNLDSGTDLSFPWILNVLNLKAFDFYKVIESFIKAEGNLTREMIKHLERCEHRIMESLAWLSDSPLFDLIKQSKDREGPTDHLESACPLNLPLQNNHTAADMYLSPVRSPKKKGSTTRVNSTANAETQATSAFQTQKPLKSTSLSLFYKKVYRLAYLRLNTLCERLLSEHPELEHIIWTLFQHTLQNEYELMRDRHLDQIMMCSMYGICKVKNIDLKFKIIVTAYKDLPHAVQETFKRVLIKEEEYDSIIVFYNSVFMQRLKTNILQYASTRPPTLSPIPHIPRSPYKFPSSPLRIPGGNIYISPLKSPYKISEGLPTPTKMTPRSRILVSIGESFGTSEKFQKINQMVCNSDRVLKRSAEGSNPPKPLKKLRFDIEGSDEADGSKHLPGESKFQQKLAEMTSTRTRMQKQKMNDSMDTSNKEEK
With B1, in experiment [1], the binding result is given as “no binding”.

B2: Miro1 1-594, two-hybrid prey pJG4-5-Miro1^1-594 (domain or fragment, UniProt Q8IXI2 1-594)
chain: MKKDVRILLVGEPRVGKTSLIMSLVSEEFPEEVPPRAEEITIPADVTPERVPTHIVDYSEAEQSDEQLHQEISQANVICIVYAVNNKHSIDKVTSRWIPLINERTDKDSRLPLILVGNKSDLVEYSSMETILPIMNQYTEIETCVECSAKNLKNISELFYYAQKAVLHPTGPLYCPEEKEMKPACIKALTRIFKISDQDNDGTLNDAELNFFQRICFNTPLAPQALEDVKNVVRKHISDGVADSGLTLKGFLFLHTLFIQRGRHETTWTVLRRFGYDDDLDLTPEYLFPLLKIPPDCTTELNHHAYLFLQSTFDKHDLDRDCALSPDELKDLFKVFPYIPWGPDVNNTVCTNERGWITYQGFLSQWTLTTYLDVQRCLEYLGYLGYSILTEQESQASAVTVTRDKKIDLQKKQTQRNVFRCNVIGVKNCGKSGVLQALLGRNLMRQKKIREDHKSYYAINTVYVYGQEKYLLLHDISESEFLTEAEIICDVVCLVYDVSNPKSFEYCARIFKQHFMDSRIPCLIVAAKSDLHEVKQEYSISPTDFCRKHKMPPPQAFTCNTADAPSKDIFVKLTTMAMYPHVTQADLKSSTFWL
As to B2, the binding result is given as “binds” in experiment [1], “binds” in experiment [2], “no binding” in experiment [3] and “no binding” in experiment [4].

B3: RB 301-918 fragment, two-hybrid prey (pJG4-5) (domain or fragment, UniProt P06400 301-918)
chain: NSLGLVTSNGLPEVENLSKRYEEIYLKNKDLDARLFLDHDKTLQTDSIDSFETQRTPRKSNLDEEVNVIPPHTPVRTVMNTIQQLMMILNSASDQPSENLISYFNNCTVNPKESILKRVKDIGYIFKEKFAKAVGQGCVEIGSQRYKLGVRLYYRVMESMLKSEEERLSIQNFSKLLNDNIFHMSLLACALEVVMATYSRSTSQNLDSGTDLSFPWILNVLNLKAFDFYKVIESFIKAEGNLTREMIKHLERCEHRIMESLAWLSDSPLFDLIKQSKDREGPTDHLESACPLNLPLQNNHTAADMYLSPVRSPKKKGSTTRVNSTANAETQATSAFQTQKPLKSTSLSLFYKKVYRLAYLRLNTLCERLLSEHPELEHIIWTLFQHTLQNEYELMRDRHLDQIMMCSMYGICKVKNIDLKFKIIVTAYKDLPHAVQETFKRVLIKEEEYDSIIVFYNSVFMQRLKTNILQYASTRPPTLSPIPHIPRSPYKFPSSPLRIPGGNIYISPLKSPYKISEGLPTPTKMTPRSRILVSIGESFGTSEKFQKINQMVCNSDRVLKRSAEGSNPPKPLKKLRFDIEGSDEADGSKHLPGESKFQQKLAEMTSTRTRMQKQKMND
For B3, in experiment [1], the binding result was “no binding”.
